Compound in this assay: Nc1nc2c(ncn2[C@@H]2O[C@H](COP(=O)(O)OP(=O)(O)OP(=O)(O)O)[C@@H](O)[C@H]2O)c(=O)[nH]1 [guanosine triphosphate]
Briefly: NP40-soluble protein abundance relative to vehicle (solubility fold change) (ratio); higher = more soluble protein in presence of GTP. As for the experimental part: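 Solubility proteome profiling in Jurkat crude lysate. Lysate was treated with Mg-GTP (0.1-10 mM) for 10 min at room temperature and 3 min at 37 °C, then solubilised with 0.8% NP40 and benzonase, followed by ultracentrifugation. Proteins were quantified by TMT10 LC-MS/MS; the value is the NP40-soluble abundance relative to the NP40-processed vehicle, from 3 independent experiments.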

Chains of the proteins cited; added tags and fusions are not shown. Lines headed by an entry give the natural chain unless they say otherwise; changes in a name come on top.
UniProt Q9Y3D2: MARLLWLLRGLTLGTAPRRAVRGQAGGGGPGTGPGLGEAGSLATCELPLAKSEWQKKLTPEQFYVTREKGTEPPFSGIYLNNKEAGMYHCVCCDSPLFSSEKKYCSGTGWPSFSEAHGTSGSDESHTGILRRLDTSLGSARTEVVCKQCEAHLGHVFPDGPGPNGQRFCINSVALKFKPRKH
UniProt Q9UNI6, whole entry: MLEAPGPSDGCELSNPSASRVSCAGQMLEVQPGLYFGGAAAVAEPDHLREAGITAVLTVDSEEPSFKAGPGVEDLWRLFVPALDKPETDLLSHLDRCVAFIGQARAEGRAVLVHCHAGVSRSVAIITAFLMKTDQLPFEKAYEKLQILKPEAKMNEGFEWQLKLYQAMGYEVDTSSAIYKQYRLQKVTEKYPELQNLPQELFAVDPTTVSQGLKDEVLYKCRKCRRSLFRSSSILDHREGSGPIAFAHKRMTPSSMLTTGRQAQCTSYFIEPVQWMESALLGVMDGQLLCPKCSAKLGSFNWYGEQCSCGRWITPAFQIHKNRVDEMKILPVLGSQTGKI
UniProt Q9UNY4: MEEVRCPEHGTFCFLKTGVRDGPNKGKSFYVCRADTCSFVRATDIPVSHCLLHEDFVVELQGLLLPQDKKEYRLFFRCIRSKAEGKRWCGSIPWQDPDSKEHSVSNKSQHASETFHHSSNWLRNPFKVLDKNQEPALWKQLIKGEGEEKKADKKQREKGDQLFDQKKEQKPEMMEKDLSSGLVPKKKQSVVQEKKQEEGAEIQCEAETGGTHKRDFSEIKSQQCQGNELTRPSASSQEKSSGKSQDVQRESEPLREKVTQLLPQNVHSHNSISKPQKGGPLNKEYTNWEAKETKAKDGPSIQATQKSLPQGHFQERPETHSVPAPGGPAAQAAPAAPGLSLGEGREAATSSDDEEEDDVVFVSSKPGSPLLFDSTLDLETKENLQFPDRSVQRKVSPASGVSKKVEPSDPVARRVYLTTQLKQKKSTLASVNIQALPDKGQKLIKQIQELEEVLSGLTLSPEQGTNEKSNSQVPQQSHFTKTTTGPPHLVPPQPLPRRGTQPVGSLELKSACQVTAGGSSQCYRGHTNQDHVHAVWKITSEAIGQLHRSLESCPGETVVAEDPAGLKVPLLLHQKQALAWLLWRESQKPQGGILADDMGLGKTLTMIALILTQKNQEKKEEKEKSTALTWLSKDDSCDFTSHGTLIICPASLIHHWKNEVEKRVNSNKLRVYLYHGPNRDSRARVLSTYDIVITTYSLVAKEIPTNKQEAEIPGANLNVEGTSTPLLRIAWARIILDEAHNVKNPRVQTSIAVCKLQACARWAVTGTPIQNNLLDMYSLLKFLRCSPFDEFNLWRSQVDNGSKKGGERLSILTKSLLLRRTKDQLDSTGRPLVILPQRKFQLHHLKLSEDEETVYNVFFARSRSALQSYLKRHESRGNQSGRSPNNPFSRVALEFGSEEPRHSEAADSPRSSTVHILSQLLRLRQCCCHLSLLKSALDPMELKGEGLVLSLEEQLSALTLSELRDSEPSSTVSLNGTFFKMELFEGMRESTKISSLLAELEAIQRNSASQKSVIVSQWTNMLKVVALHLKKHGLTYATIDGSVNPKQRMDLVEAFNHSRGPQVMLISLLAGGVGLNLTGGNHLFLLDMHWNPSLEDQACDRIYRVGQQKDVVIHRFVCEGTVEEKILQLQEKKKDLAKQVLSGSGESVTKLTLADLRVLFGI
UniProt Q9Y5Q8: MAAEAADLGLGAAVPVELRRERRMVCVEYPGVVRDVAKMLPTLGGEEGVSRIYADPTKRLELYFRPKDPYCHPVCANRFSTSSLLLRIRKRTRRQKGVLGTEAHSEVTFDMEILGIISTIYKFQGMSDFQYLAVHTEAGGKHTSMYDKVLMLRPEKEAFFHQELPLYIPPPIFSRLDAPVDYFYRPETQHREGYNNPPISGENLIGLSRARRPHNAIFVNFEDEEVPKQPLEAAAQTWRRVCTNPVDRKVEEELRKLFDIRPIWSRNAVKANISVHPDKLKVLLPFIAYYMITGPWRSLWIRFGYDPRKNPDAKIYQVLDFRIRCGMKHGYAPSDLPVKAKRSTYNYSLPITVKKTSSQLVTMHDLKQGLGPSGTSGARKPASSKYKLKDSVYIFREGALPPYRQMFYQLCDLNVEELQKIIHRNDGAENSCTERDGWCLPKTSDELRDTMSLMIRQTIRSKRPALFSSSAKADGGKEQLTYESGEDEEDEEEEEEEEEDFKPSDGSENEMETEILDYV
UniProt Q9Y450, whole entry: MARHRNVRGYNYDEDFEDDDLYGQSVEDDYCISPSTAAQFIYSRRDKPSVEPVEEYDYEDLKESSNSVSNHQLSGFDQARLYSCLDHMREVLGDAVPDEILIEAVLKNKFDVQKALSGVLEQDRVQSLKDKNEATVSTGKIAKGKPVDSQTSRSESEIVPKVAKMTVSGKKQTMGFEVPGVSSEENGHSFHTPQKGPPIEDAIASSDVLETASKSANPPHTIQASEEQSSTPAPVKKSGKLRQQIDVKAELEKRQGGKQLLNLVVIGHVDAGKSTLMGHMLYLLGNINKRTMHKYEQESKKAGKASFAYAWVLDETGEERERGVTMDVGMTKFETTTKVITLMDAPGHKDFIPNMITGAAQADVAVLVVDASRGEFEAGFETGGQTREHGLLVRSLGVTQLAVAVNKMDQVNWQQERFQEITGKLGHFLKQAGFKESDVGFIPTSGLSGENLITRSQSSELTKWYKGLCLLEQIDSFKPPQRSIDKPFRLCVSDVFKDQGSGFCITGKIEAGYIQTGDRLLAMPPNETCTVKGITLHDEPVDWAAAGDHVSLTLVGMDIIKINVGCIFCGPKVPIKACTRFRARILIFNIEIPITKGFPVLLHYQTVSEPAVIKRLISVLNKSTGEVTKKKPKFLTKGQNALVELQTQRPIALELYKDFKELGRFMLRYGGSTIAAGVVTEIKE

± gives the standard deviation of the averaged measurements. The list shows a part of the results.

On to MSRB2 (UniProt Q9Y3D2), for which the NP40-soluble protein abundance reads like this: (concentration: 0.1mM) 0.95 ± 0.026; (concentration: 0.5mM) 1.06 ± 0.17; (concentration: 1mM) 0.956 ± 0.12; (concentration: 2mM) 1.04 ± 0.12; (concentration: 4mM) 1.03 ± 0.12; (concentration: 6mM) 1.01 ± 0.07. Also, the NP40-soluble protein abundance is, setting by setting: (concentration: 8mM) 0.95716 ± 0.00017; (concentration: 10mM) 1.03 ± 0.014.

Consider DUSP12 (UniProt Q9UNI6), for which the NP40-soluble protein abundance reads like this: (concentration: 0.1mM) 1.07 ± 0.074; (concentration: 0.5mM) 1.04 ± 0.091; (concentration: 1mM) 0.956 ± 0.085; (concentration: 2mM) 0.959 ± 0.1; (concentration: 4mM) 0.965 ± 0.06; (concentration: 6mM) 0.905 ± 0.12. For the same target, the NP40-soluble protein abundance turned out to be 0.93 ± 0.029 (concentration: 8mM) and 0.953 ± 0.017 (concentration: 10mM).

Regarding TTF2 (UniProt Q9UNY4), the NP40-soluble protein abundance is, setting by setting: (concentration: 0.1mM) 1 ± 0.015; (concentration: 0.5mM) 0.994 ± 0.03; (concentration: 1mM) 0.974 ± 0.045; (concentration: 2mM) 0.967 ± 0.036; (concentration: 4mM) 0.937 ± 0.057; (concentration: 6mM) 0.954 ± 0.067. For the same target, the NP40-soluble protein abundance by setting is: (concentration: 8mM) 0.984 ± 0.037; (concentration: 10mM) 0.964 ± 0.037.

On to UniProt Q9Y5Q8 and related entries, for which the NP40-soluble protein abundance by setting is: (concentration: 0.1mM) 1.05 ± 0.023; (concentration: 0.5mM) 1.11 ± 0.083; (concentration: 1mM) 1.05 ± 0.062; (concentration: 2mM) 1.08 ± 0.064; (concentration: 4mM) 1.06 ± 0.056; (concentration: 6mM) 1.06 ± 0.053. Also, the NP40-soluble protein abundance was determined as 1.06 ± 0.014 (concentration: 8mM) and 1.02 ± 0.061 (concentration: 10mM).

On to UniProt Q9Y450 and related entries, for which the NP40-soluble protein abundance runs as follows: (concentration: 0.1mM) 0.979 ± 0.041; (concentration: 0.5mM) 0.982 ± 0.028; (concentration: 1mM) 0.962 ± 0.035; (concentration: 2mM) 0.95 ± 0.017; (concentration: 4mM) 0.979 ± 0.031; (concentration: 6mM) 0.958 ± 0.021. For the same target, the NP40-soluble protein abundance was 0.987 ± 0.054 (concentration: 8mM) and 0.977 ± 0.07 (concentration: 10mM).

The record behind these values is the supplement of paper PMC6411743.
